From US20040152766A1, “Composition comprising demethylcantharidin in combination with platinum-containing anticancer agents and use thereof” (priority 2003, published 2004) come the findings set out here.

Molecules are shown by their SMILES. Where “and” joins values, the source holds several entries; their conditions need not be identical. Equal entries are not always repeated. Where two headings read alike, the source gives them in different places.

Data set [1] relates to Cisplatin-resistant L1210 mouse leukaemia. The conditions noted are these: 72-hr exposure.
The subject of data set [2] is Sensitive parental L1210 mouse leukaemia. The format is cell-based. The settings on record: 72-hr exposure.

For the molecule `O=C1[O][Pt]2([NH]C3CCCCC3[NH]2)[O]C(=O)C2C3CCC(O3)C12` (stereo not shown) [Complex 5], the “m, slope of the median-effect plot” value in data set [1] was found to be 0.7887; in data set [2], 0.9498.

Regarding `O=C1OC(=O)C2C3CCC(O3)C12` (stereo not shown) [DMC, Demethylcantharidin], the “m, slope of the median-effect plot” value was 1.6107 in data set [1]; 1.8366 in data set [2]; 2.4154 and 2.4384 and 2.2353 and 2.6927 and 1.4432 in data set [2] (listed as Demethylcantharidin (DMC)).

On to `[NH2][Pt]1([NH2])[O]C(=O)C2C3CCC(O3)C2C(=O)[O]1` (stereo not shown) [Complex 1], for which the entries for the “m, slope of the median-effect plot” value in data set [1] and in data set [2] were 2.7684 and 1.7975, respectively.

Regarding `N.N.[Cl][Pt][Cl]` [Cisplatin, reference compound], the “m, slope of the median-effect plot” value in data set [1] worked out at 1.6239; in data set [2] it was 1.2405.

As for `O=C1[O][Pt]2([NH][C@@H]3CCCC[C@H]3[NH]2)[O]C1=O` [Oxaliplatin], the “m, slope of the median-effect plot” value turned out to be 0.6145 in data set [1] and 0.8324 in data set [2].

Regarding `N.N.O=C([O-])C1(C(=O)[O-])CCC1.[Pt+2]` [Carboplatin, reference compound], the “m, slope of the median-effect plot” value was 0.8792 and 0.8972 in data set [1]; 1.0537 in data set [2].
